Data as given in PubChem BioAssay AID686943 (Drosophila RNAi Screening Center, 2013)

- Screen: 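Knockdowns that increase or decrease active ERK after insulin receptor stimulation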 (primary screen)
- System: Drosophila S2R+ haemocyte-like cells expressing YFP-tagged ERK (Rolled)
- Knock-down reagent: long dsRNA against Drosophila genes
- Challenge: insulin stimulation versus unstimulated cells; dose and duration not given
- Detection: 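Per-plate z-scores of phospho-ERK immunostaining normalised to YFP-tagged ERK, measured with and without insulin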
- Direction: replicate 1, z-score of dpERK with insulin and replicate 2, z-score of dpERK with insulin: higher = more active ERK per ERK-YFP after insulin
In all, the deposit lists about 23,000 reagents; below is a random part of those with a known target gene and a result. 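Extra replicates exist only for a retested subset of genes; insulin dose and duration not given; both raised and lowered dpERK matter.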 A plus sign joins genes that one reagent is predicted to hit. Further read-outs or replicates are left out here. The record does not give: the amount of reagent, the time to read-out.

How did the screen score CG8379 (GeneID 41060) [DRSC16414]?
replicate 1, z-score of dpERK with insulin: 0.46; replicate 2, z-score of dpERK with insulin: 1.45

With Mkp3 (GeneID 40081) [DRSC10084], what does the deposit list?
replicate 1, z-score of dpERK with insulin: 0.39; replicate 2, z-score of dpERK with insulin: -0.04

With Mkp3 (GeneID 40081) [DRSC10085], what was measured?
replicate 1, z-score of dpERK with insulin: 0.09; replicate 2, z-score of dpERK with insulin: 0.23

What did the screen give for CG13842 (GeneID 42685) [DRSC14692]?
replicate 1, z-score of dpERK with insulin: -1.05; replicate 2, z-score of dpERK with insulin: -0.91

With Cec-Psi1 (GeneID 3772648) [DRSC21956], how do the results read?
replicate 1, z-score of dpERK with insulin: 0.37; replicate 2, z-score of dpERK with insulin: 0.16

Which result is listed for CG9192 (GeneID 38134) [DRSC08639]?
replicate 1, z-score of dpERK with insulin: 0.12; replicate 2, z-score of dpERK with insulin: 0.1

With CG5116 (GeneID 43081) [DRSC15720], what was measured?
replicate 1, z-score of dpERK with insulin: 1.43; replicate 2, z-score of dpERK with insulin: 0.21

For Gr47a (GeneID 36094) [DRSC06221], what does the deposit list?
replicate 1, z-score of dpERK with insulin: -0.05; replicate 2, z-score of dpERK with insulin: -0.4

What is on record for CG14053 (GeneID 31197) [DRSC17908]?
replicate 1, z-score of dpERK with insulin: -0.91; replicate 2, z-score of dpERK with insulin: -0.06

For CG15456 (GeneID 50123) [DRSC20527], how do the results read?
replicate 1, z-score of dpERK with insulin: -0.19; replicate 2, z-score of dpERK with insulin: 0.06

For CG11980 (GeneID 41078) [DRSC14456], what does the deposit list?
replicate 1, z-score of dpERK with insulin: 0.03; replicate 2, z-score of dpERK with insulin: -0.08

Which result is listed for bsk (GeneID 44801) [DRSC03499]?
replicate 1, z-score of dpERK with insulin: -0.24; replicate 2, z-score of dpERK with insulin: 0.26

What is on record for CG14135 (GeneID 39316) [DRSC10140]?
replicate 1, z-score of dpERK with insulin: -0.14; replicate 2, z-score of dpERK with insulin: 0.48

With Nnf1a (GeneID 37325) [DRSC06394], what was measured?
replicate 1, z-score of dpERK with insulin: -1.12; replicate 2, z-score of dpERK with insulin: -1.57

What did the screen give for CG5131 (GeneID 35057) [DRSC02817]?
replicate 1, z-score of dpERK with insulin: 0.02; replicate 2, z-score of dpERK with insulin: 0.51

What did the screen give for 140up (GeneID 41720) [DRSC12634]?
replicate 1, z-score of dpERK with insulin: -0.22; replicate 2, z-score of dpERK with insulin: -0.07

For CG3358 (GeneID 35604) [DRSC04992], what was measured?
replicate 1, z-score of dpERK with insulin: -0.02; replicate 2, z-score of dpERK with insulin: -0.08

What is on record for CG31288 (GeneID 318664) [DRSC14667]?
replicate 1, z-score of dpERK with insulin: 0.15; replicate 2, z-score of dpERK with insulin: -0.52

What is on record for Ube4B (GeneID 34699) [DRSC03277]?
replicate 1, z-score of dpERK with insulin: -0.52; replicate 2, z-score of dpERK with insulin: -0.4

What is on record for Cyp4g1 (GeneID 30986) [DRSC18459]?
replicate 1, z-score of dpERK with insulin: -0.35; replicate 2, z-score of dpERK with insulin: -0.13

What is on record for nst (GeneID 39434) [DRSC09755]?
replicate 1, z-score of dpERK with insulin: 0.41; replicate 2, z-score of dpERK with insulin: -0.72

For Rab9Db + Rab9Fa [DRSC18445], what does the deposit list?
replicate 1, z-score of dpERK with insulin: 0.66; replicate 2, z-score of dpERK with insulin: 0.14

What did the screen give for Syt1 (GeneID 33473) [DRSC00156]?
replicate 1, z-score of dpERK with insulin: 1.17; replicate 2, z-score of dpERK with insulin: 0.48

For Syt1 (GeneID 33473) [DRSC00157], what was measured?
replicate 1, z-score of dpERK with insulin: 1.37; replicate 2, z-score of dpERK with insulin: 1.12

For Syt1 (GeneID 33473) [DRSC00158], how do the results read?
replicate 1, z-score of dpERK with insulin: -0.01; replicate 2, z-score of dpERK with insulin: 0.27

What did the screen give for Syt1 (GeneID 33473) [DRSC00840]?
replicate 1, z-score of dpERK with insulin: -0.57; replicate 2, z-score of dpERK with insulin: -0.3

For Syt1 (GeneID 33473) [DRSC22077], what was measured?
replicate 1, z-score of dpERK with insulin: -1.53; replicate 2, z-score of dpERK with insulin: -0.01

What did the screen give for CG9737 (GeneID 43600) [DRSC16550]?
replicate 1, z-score of dpERK with insulin: 0.08; replicate 2, z-score of dpERK with insulin: -0.23

What did the screen give for alpha-Man-IIa (GeneID 41126) [DRSC15393]?
replicate 1, z-score of dpERK with insulin: -0.18; replicate 2, z-score of dpERK with insulin: 0.13

For Pp2C1 (GeneID 31404) [DRSC18699], what does the deposit list?
replicate 1, z-score of dpERK with insulin: 0.4; replicate 2, z-score of dpERK with insulin: 1.14

With CG42613 (GeneID 42269) [DRSC13332], what does the deposit list?
replicate 1, z-score of dpERK with insulin: 0.65; replicate 2, z-score of dpERK with insulin: 2.26

With CG42613 (GeneID 42269) [DRSC14769], what does the deposit list?
replicate 1, z-score of dpERK with insulin: -1.68; replicate 2, z-score of dpERK with insulin: 0.95

With CG42613 (GeneID 42269) [DRSC15802], what does the deposit list?
replicate 1, z-score of dpERK with insulin: 0.44; replicate 2, z-score of dpERK with insulin: -0.85

What is on record for CG42613 (GeneID 42269) [DRSC22613]?
replicate 1, z-score of dpERK with insulin: 0.42; replicate 2, z-score of dpERK with insulin: 0.49
